In data set [1] the test system is NF1 (nuclear factor 1, family member not resolved by antibody) (human (L02 cells)). Briefly: competition with a labelled probe. To be noted: 200-fold unlabeled NF1 consensus fully competed with labeled -462 G; Binding buffer 100 mM Tris, 500 mM KCl, 10 mM DTT; 20 ul), 1 ug poly(dI-dC), 10 ug L02 nuclear extract, 10 fmol probe; protein in an extract; label: 5'-biotin (unlabeled as competitor).

Data set [2] shares this test system. Briefly: EMSA. To be noted: labeled positive control, complex at same position as -462 G complex; Binding buffer 100 mM Tris, 500 mM KCl, 10 mM DTT; 20 ul), 1 ug poly(dI-dC), 10 ug L02 nuclear extract, 10 fmol probe; protein in an extract; label: 5'-biotin (unlabeled as competitor).

The exact form of at least one protein or probe is not confirmed. Where cells or extracts were used, other partners may take part. For some assays here: At least one verdict was read from the data and is not stated in words by the source.

With “GGGCTAGATGGCTGCCAGCCAAGGCTTCAT (double strand) [NF1 consensus]”, the binding result in data set [1] and in data set [2] was “binds” each time.

The values are drawn from publication PMC3335092.
